Results are given in words; binding and its absence hold for the method and conditions named. Binding seen in cells or lysates may run through a third protein. Some binding calls cover weakened binding; strength is not graded here.
Biological target: T1, Recombinant TEM1 (rTEM1), recombinant extracellular domains (D1-4) of TEM1 protein (human) (UniProt Q9HCU0)
T1 sequence: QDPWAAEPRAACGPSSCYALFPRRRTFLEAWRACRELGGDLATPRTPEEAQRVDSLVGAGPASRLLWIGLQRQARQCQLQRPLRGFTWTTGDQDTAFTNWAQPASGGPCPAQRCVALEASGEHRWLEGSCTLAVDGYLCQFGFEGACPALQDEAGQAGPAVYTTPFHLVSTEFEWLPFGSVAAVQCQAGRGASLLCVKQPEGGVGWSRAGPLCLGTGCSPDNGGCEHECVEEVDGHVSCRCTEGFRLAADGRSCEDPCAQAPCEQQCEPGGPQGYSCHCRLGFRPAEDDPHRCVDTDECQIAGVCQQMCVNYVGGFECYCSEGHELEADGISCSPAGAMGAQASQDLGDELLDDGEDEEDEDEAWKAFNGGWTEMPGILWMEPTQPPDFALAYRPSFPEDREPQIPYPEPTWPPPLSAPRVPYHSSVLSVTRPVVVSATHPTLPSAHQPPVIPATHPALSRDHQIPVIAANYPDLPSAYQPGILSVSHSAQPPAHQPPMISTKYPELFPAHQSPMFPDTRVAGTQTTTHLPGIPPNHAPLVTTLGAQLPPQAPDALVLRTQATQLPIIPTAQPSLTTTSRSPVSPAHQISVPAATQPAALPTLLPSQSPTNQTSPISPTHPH
Test: co-IP; H9C2 cells treated with 1 μM rTEM1 for 1 h at 37 °C, lysed; immunoprecipitation with anti-TEM1 antibody or rabbit IgG overnight at 4 °C; western blot with anti-PDGFR-β and anti-TEM1; only the target purified

Sequences of proteins named here, by UniProt entry; tags and fusion partners are left off. Residues count along the entry.
UniProt Q05030, residues 32-1097: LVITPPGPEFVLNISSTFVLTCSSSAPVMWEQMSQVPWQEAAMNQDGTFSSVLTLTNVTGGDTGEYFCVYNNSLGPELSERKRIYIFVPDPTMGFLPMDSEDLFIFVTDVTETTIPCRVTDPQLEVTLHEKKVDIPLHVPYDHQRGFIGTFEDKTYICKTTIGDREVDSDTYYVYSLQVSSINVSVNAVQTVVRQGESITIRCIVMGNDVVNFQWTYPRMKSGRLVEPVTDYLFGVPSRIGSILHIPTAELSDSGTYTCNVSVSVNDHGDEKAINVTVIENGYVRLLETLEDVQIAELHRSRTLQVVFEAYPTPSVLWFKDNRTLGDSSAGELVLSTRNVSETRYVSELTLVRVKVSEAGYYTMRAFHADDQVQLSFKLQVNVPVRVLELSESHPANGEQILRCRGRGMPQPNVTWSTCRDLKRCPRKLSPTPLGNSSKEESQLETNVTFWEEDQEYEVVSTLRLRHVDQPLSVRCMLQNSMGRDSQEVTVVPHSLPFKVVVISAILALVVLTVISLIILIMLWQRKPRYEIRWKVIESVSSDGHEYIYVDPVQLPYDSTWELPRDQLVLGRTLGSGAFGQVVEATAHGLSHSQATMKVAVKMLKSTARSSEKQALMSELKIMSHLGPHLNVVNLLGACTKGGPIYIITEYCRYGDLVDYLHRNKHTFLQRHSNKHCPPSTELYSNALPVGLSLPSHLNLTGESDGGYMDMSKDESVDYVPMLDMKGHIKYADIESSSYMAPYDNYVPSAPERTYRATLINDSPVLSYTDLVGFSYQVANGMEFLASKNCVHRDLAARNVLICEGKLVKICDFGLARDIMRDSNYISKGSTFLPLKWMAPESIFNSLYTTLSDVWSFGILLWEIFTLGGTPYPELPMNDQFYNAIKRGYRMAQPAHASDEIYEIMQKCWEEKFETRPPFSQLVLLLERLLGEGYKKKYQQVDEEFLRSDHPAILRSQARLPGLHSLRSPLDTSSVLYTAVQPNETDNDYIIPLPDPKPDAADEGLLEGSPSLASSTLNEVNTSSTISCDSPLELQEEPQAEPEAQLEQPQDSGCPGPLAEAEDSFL

- binding: binds
Substance: platelet-derived growth factor (PDGF) receptor (PDGFR-β) (from UniProt Q05030 32-1097)

Source: article PMC9218118
